This series in a line: general procedure: peptide synthesis; NovaSyn TGR R resin. The settings on record: whole synthesis, analytical reversed-phase HPLC and MALDI-TOF mass spectrometry, scale 13.5 μmol.

Here are results for one sequence from patent US10369187B2 (Vanderbilt University, priority 2017, dated 2019).

Where a sequence shows no end group, the ends are not given. Bounds are passed on as bounds.

As to MGEKPGTRVFKKSSPNCKLTVYLGK (bovine), the “purity (crude or final not stated)” value is no less than 95%.
